The record followed here is article PMC7819943, “Rice protein-binding microarrays: a tool to detect cis-acting elements near promoter regions in rice”.

Chains of the proteins cited; added tags and fusions are not shown.
UniProt Q0JBA9, entry or part of it: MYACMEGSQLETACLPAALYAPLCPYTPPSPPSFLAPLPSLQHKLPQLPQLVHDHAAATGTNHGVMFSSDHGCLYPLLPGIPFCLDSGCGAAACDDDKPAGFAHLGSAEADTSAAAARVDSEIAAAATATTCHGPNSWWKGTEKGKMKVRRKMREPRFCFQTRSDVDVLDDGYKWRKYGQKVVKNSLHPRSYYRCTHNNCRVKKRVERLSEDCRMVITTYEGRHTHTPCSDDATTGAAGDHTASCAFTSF

This is one part of the list.

In this test the target is OsWRKY34 (Oryza sativa, UniProt Q0JBA9 1-250). In words: protein-binding microarray (RPBM); PBS, 2% BSA, 51.3 ng/ul salmon testes DNA, 50 uM zinc acetate, 200 nM TF, 25 C, 1 h; high values mean tight binding. Particulars: protein: recombinant; tags: N-terminal polyhistidine and DsRed monomer fusion (pET32a); label: CyDye5-dUTP incorporated in the synthesized complementary strand; 3' TTTTT single-stranded linker to array surface; dsDNA, one strand shown. The gist of the method: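 Using Ni–NTA, transcription factors fused N-terminally to polyhistidine and DsRed were purified after expression in E. coli BL21-CodonPlus. These were incubated at 200 nM with a blocked, double-stranded custom Agilent array for 1 h at 25 °C in a buffer containing 50 µM zinc acetate, and the array was washed. The binding signal is per-feature fluorescence intensity (arbitrary units) on an Axon 4000B scanner.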
For “TTTTGCTACAGTGCTCGGATATATCTGGGACGTCCATTTTCGGAGTCACCTAGTGCAG”, the binding signal is 10200 fluorescence intensity (a.u.).
“ACCCCGGCCACTCGTAAACCCCGAGAAACCTTGGCGGCTTCGGAGTCACCTAGTGCAG”: the binding signal is 8130 fluorescence intensity (a.u.).
The same measure for “TTGTACGATCGATTACCAGTAGTAGCTCACTCCTAATCTCCGGAGTCACCTAGTGCAG”: 9280 fluorescence intensity (a.u.); for “GAATTCTTGCAAACTCGTTTCATATGTTTTGTTTTGCTTTCGGAGTCACCTAGTGCAG”: 11300 fluorescence intensity (a.u.); for “CCCTTTTTTATACCGTGGCATATCTCTCTGCATTTAATCTCGGAGTCACCTAGTGCAG”: 13700 fluorescence intensity (a.u.).
Consider “GTCTTCCCCTAGCGCCGCCGCCTCCACCTCCGCCGCCGTCCGGAGTCACCTAGTGCAG”, for which the binding signal was 8700 fluorescence intensity (a.u.).
On to “GTCATCCTCTTTGTGTGAGCGGCCACCATCGGCGCATCGTCGGAGTCACCTAGTGCAG”, for which the binding signal was 8350 fluorescence intensity (a.u.).
“ACGCTTTTTTTTATAGTTCATCCATGCAGATGGAGTACTCCGGAGTCACCTAGTGCAG”: the binding signal was 14600 fluorescence intensity (a.u.).
The same measure for “GGAGATTTCCCCGCCGTTGACTGGTAACTACCTACCTATCCGGAGTCACCTAGTGCAG”: 11200 fluorescence intensity (a.u.); for “ACAGCCGTGGAGGGGAGGAGAATCGGCCGCCGTTGACCACCGGAGTCACCTAGTGCAG”: 15400 fluorescence intensity (a.u.).
As for “ACGCCTCATCTCCAGTCCACGGCTCAACGTCCACGCACACCGGAGTCACCTAGTGCAG”, the binding signal is 10500 fluorescence intensity (a.u.).
In the case of “TAGCTAGCTGAATTTGCAAGCACGTACTACATTGTTAGATCGGAGTCACCTAGTGCAG”, the binding signal was 8340 fluorescence intensity (a.u.).
For “CTTCGTCTCTCGCCTTGTACATTTCTAATTGTTATATGTTCGGAGTCACCTAGTGCAG”, the binding signal is 8500 fluorescence intensity (a.u.).
Under “TCCTCTGCAGTCACTTTACCGTGCATTTATCACATGTCAGCGGAGTCACCTAGTGCAG” stands 9610 fluorescence intensity (a.u.).
As for “TATCCTTTGACTTTGAGTGACTGACATATAGACCCATGCTCGGAGTCACCTAGTGCAG”, the binding signal was 9980 fluorescence intensity (a.u.).
Regarding “GGCCCATATCGCGCTCCTCGTCTTGCCGTCCAAGACGTCTCGGAGTCACCTAGTGCAG”, the binding signal was 12400 fluorescence intensity (a.u.).
With “GAGTACTGCTGCTCCTGCTTGTGTTGCCATACATGTTGACCGGAGTCACCTAGTGCAG”, the binding signal was 10800 fluorescence intensity (a.u.).
As to “CAAGATTAGCACTCACTGGTTCTTCTTCCTTGTTTATTTGCGGAGTCACCTAGTGCAG”, the binding signal is 9810 fluorescence intensity (a.u.).
The same measure for “CAGTCACCTGAGGAAGTCCTAGCTCGCTCGCTCTCTCTCTCGGAGTCACCTAGTGCAG”: 9610 fluorescence intensity (a.u.).
The same measure for “GGTCCGGCGGAAGTAGGGGCGGAAGTGCGGGCGGGAGATGCGGAGTCACCTAGTGCAG”: 9700 fluorescence intensity (a.u.); for “AGTTTCAAAGTTCAAACTGGCATACCGTCTACCCATGTCCCGGAGTCACCTAGTGCAG”: 8880 fluorescence intensity (a.u.); for “CTTCAAGGGTTGTGCACTTTTTCCTTCTCTCATGGATAATCGGAGTCACCTAGTGCAG”: 9160 fluorescence intensity (a.u.).
Consider “AACTTGACGCTACCCCTATCTGGCGCGCCAATTGTCGAAACGGAGTCACCTAGTGCAG”, for which the binding signal was 9010 fluorescence intensity (a.u.).
For “CAAGCCACCATCCCGACACTGTTCGAGAACCCGTCCACGTCGGAGTCACCTAGTGCAG”, the binding signal was 9350 fluorescence intensity (a.u.).
In the case of “CTCACTCACATGTCACGGCATCGGACATCGGTAAAGCAAACGGAGTCACCTAGTGCAG”, the binding signal is 8840 fluorescence intensity (a.u.).
Turning to “CTGCGCCATACCATATTTAATGCATTCCTGTCGTGCTCATCGGAGTCACCTAGTGCAG”, the binding signal was 9820 fluorescence intensity (a.u.).
With “GCCCGCACGTCAGTGGGCGTAGGTACAGTCGGGGCGGGTGCGGAGTCACCTAGTGCAG”, the binding signal was 8890 fluorescence intensity (a.u.).
As to “AATTTTCAGCAACTTGTTCTCCTTAGTTGATAGCATATACCGGAGTCACCTAGTGCAG”, the binding signal was 8920 fluorescence intensity (a.u.).
“ACGCGCGGGCGCTTCGCCTCCGTCACCATCTCGCGAGATGCGGAGTCACCTAGTGCAG”: the binding signal is 9280 fluorescence intensity (a.u.).
As to “CTCGCCGTCCGCCGCCTCGCTCGCTCGCTCGCCGTCCGCCCGGAGTCACCTAGTGCAG”, the binding signal was 9450 fluorescence intensity (a.u.).
Under “AGCCACAAATCCTTATTCGTTCAATTGTTTTTCTTCCTCTCGGAGTCACCTAGTGCAG” stands 8140 fluorescence intensity (a.u.); under “TGGGTGGTGGTGGTGGTTCATCTCGCCGCGGGCGCGCACACGGAGTCACCTAGTGCAG”, 8400 fluorescence intensity (a.u.).
Consider “TTTTCTGTAGCTTTCTATTTTTTGCTAGCCTCCTTGTGATCGGAGTCACCTAGTGCAG”, for which the binding signal was 8680 fluorescence intensity (a.u.).
Regarding “AATCGGGTATGTAAACTTTTGACTTATAAACTTTGGGTCTCGGAGTCACCTAGTGCAG”, the binding signal was 9240 fluorescence intensity (a.u.).
“TATAGATAGATACTACCAGGGTTTCCAAACTGTTTTTTTGCGGAGTCACCTAGTGCAG”: the binding signal is 23300 fluorescence intensity (a.u.).
“ACTCATTTTCTTTCTGGGAGCTCTTTTATCTAACTACTCCCGGAGTCACCTAGTGCAG”: the binding signal was 9220 fluorescence intensity (a.u.).
Take “TACTCCTTCTCGCTAGCTTTGTGTTTATAGAGTTGCATTTCGGAGTCACCTAGTGCAG”: the binding signal was 9660 fluorescence intensity (a.u.).
For the sequence “TGAGTGCCCGTGCTCCGTCCCACCGCCGTCACTGCCATCCCGGAGTCACCTAGTGCAG”, the binding signal is 9110 fluorescence intensity (a.u.).
As for “TCCTTCATATTATAAGACTTTCTAGCATTGCCCACATTCACGGAGTCACCTAGTGCAG”, the binding signal was 8870 fluorescence intensity (a.u.).
Consider “GGGTAATGGAGGAGATGGGCCAGTAGGGTTGGTGACTGTTCGGAGTCACCTAGTGCAG”, for which the binding signal was 9380 fluorescence intensity (a.u.).
Consider “AAGTCAAAACAGCGTTAGTCTAAGCCCTATATAAACGCTCCGGAGTCACCTAGTGCAG”, for which the binding signal was 8460 fluorescence intensity (a.u.).
Turning to “AGGGGTGGGATTGAGATTGGGAAATAAATAAAATGTTAGGCGGAGTCACCTAGTGCAG”, the binding signal was 8140 fluorescence intensity (a.u.).
